The record followed here is article PMC9500383.

Protein sequences, listed by entry. Tags and fused reporters are not part of them. Lines headed by an entry give the natural chain unless they say otherwise; changes in a name come on top. Residues count along the entry.
UniProt O14936: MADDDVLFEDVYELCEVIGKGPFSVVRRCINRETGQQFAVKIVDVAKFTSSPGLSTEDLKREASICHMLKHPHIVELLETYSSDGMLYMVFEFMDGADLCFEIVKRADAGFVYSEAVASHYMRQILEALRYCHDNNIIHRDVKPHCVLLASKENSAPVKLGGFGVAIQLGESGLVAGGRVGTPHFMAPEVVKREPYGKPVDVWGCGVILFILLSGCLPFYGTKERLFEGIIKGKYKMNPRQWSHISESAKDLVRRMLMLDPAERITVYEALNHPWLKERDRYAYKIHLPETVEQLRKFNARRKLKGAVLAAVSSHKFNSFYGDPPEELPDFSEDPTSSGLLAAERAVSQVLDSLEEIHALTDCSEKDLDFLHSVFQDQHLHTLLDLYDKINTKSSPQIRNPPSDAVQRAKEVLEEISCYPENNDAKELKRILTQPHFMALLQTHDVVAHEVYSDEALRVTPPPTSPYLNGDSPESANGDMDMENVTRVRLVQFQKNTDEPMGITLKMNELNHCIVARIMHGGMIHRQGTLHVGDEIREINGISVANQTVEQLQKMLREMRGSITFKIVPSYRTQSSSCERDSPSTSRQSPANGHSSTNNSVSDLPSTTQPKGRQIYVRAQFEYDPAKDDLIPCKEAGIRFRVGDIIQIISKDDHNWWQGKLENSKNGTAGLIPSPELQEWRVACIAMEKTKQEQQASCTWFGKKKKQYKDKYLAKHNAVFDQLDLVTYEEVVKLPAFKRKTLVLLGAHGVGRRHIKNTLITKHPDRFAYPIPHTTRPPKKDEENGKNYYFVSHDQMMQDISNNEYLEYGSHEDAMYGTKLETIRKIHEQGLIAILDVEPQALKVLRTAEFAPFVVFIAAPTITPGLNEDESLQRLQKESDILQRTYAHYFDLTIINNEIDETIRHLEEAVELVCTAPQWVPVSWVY
UniProt O75334: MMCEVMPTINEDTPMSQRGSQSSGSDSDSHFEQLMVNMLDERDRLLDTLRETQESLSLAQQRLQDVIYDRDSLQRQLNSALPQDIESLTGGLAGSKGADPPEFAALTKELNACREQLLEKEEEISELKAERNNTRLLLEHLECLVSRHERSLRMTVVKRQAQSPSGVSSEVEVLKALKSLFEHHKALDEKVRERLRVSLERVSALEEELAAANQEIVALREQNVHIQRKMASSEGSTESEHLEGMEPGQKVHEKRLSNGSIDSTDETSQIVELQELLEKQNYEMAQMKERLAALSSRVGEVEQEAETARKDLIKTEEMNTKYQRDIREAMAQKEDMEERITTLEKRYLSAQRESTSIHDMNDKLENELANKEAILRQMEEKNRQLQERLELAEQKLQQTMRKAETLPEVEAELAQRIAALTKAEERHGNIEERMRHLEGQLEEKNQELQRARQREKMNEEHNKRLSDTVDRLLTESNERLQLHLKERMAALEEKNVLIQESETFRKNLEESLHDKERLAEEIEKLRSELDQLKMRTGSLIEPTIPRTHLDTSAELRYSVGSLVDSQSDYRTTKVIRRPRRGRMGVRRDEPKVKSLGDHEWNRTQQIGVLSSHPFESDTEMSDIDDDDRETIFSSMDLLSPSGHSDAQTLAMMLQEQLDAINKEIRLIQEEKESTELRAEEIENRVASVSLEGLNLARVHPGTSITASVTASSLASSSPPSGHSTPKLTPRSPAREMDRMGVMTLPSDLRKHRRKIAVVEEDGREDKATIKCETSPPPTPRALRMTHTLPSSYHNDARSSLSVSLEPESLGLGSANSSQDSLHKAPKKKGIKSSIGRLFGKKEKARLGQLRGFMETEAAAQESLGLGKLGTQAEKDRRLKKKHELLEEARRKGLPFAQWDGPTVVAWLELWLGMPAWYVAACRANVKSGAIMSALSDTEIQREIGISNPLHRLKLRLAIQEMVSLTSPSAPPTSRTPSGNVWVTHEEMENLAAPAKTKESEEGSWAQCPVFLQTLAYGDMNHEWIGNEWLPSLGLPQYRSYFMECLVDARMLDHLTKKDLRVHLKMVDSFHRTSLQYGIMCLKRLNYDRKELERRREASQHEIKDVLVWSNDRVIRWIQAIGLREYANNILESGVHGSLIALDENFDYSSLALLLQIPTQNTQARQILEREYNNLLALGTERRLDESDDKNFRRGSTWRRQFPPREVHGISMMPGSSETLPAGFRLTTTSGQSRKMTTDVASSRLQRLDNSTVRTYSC
UniProt P0DI97, residues 47-468: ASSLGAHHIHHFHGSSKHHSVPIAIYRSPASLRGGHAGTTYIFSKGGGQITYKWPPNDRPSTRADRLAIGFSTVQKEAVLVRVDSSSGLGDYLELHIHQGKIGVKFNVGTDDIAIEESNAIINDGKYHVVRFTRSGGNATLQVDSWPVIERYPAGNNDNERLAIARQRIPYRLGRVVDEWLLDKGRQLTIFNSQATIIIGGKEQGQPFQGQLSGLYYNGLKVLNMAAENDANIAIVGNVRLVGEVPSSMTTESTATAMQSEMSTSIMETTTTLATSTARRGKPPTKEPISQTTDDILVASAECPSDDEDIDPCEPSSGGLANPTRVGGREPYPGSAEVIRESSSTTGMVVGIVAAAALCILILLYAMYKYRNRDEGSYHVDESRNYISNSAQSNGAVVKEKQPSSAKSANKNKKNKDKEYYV

The target in assay [1] is mRFP-tagged CASK-WT (human) (UniProt O14936). Kind of assay: co-IP; HEK293T cells cotransfected, lysed in RIPA buffer 24 h after transfection; mRFP-tagged CASK precipitated with RFP-Trap agarose beads, 2 h at 4°C, five washes with RIPA buffer; Western blotting.
The target is the same in assay [2]. The assay is described as above. The source holds these as a separate data set.

Read-outs that look alike come from different tables or passages of the source. These are yes or no findings as the source states them, for the method shown. In cells and extracts the contact can be indirect. A result given as binding can be weak or reduced; the word gives no strength.

For the molecule “HA-tagged Liprin-α2 (from UniProt O75334 1-1257)”, in assay [1], the binding entry is recorded as “binds”.
Still for that read-out and setting: with “HA-tagged Neurexin-1β (from UniProt P0DI97 47-468)” the entry was “binds”.

B1: Veli1 (protein, UniProt O14910 1-233)
chain: MLKPSVTSAPTADMATLTVVQPLTLDRDVARAIELLEKLQESGEVPVHKLQSLKKVLQSEFCTAIREVYQYMHETITVNGCPEFRARATAKATVAAFAASEGHSHPRVVELPKTDEGLGFNVMGGKEQNSPIYISRIIPGGVAERHGGLKRGDQLLSVNGVSVEGEHHEKAVELLKAAKDSVKLVVRYTPKVLEEMEARFEKLRTARRRQQQQLLIQQQQQQQQQQTQQNHMS
Regarding B1, the binding result in assay [2] is given as “binds”.
